Results reported in PubChem BioAssay AID504444 (National Center for Advancing Translational Sciences (NCATS), 2011).
In all, about 360,000 compounds went through this assay and about 7,500 (2.1%) were called active. This list was built around the results that the source calls inconclusive (neither active nor inactive); the mix of calls is not that of the screen. Calls come from the whole dose curve; as a rule, active = well fitted inhibition curve with a large enough effect; inconclusive = small, poorly fitted or top-dose-only effect, or effect the other way; inactive = flat fitted curve, though single readings scatter. A potency beside an inconclusive call is a rough fit, not a confirmed value.

Test: Nrf2 qHTS screen for inhibitors; note: nearly all actives have a fitted effect of over 60% in size
Conditions: A549 ARE-Fluc reporter, luciferase luminescence, 18-24 h; activity change, negative = inhibition: at 46 µM (top of the series)
Method in brief: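 Quantitative HTS in A549 cells stably bearing an antioxidant response element-firefly luciferase construct. Inhibition of Nrf2-driven transcription was scored by luminescence after 18-24 h of compound exposure at 37 °C.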
% is set by controls: 0 for no effect and ±100 for the full control effect; potency is the fitted concentration of half-maximal effect.

Structure (SMILES) | Potency | activity change, negative = inhibition
CCCCC(CC)C(=O)Nc1ncc([N+](=O)[O-])s1 (stereo unspecified) | active: 9.2 µM | –
CCN(CC)c1ccc(/C=N/Nc2nc3ccccc3[nH]2)cc1 | inconclusive: 18.4 µM [falling, single point] | –
COc1ccc(CNC(=O)c2cc3c(-c4ccccc4F)nn(C)c3s2)cc1 | inconclusive: 18.4 µM [falling, single point] | –
Cc1ccc(NS(=O)(=O)c2cc(NC(=O)c3ccc4c(c3)NC(=O)CS4)ccc2C)c(C)c1 | active: 18.4 µM | –
COc1ccc(NC(=O)CSc2nc3ccccc3c(=O)n2CCCC(=O)NCC2CCCO2)c(OC)c1 (stereo unspecified) | inconclusive: 18.4 µM [falling, partial curve, poor fit] | –
Cc1ccc(-c2nc3c(=O)n(-c4ccccc4)c4c(c(=O)n(C)c(=O)n4C)c3o2)cc1 | inconclusive: 8.2 µM [falling, partial curve, poor fit] | –
O=C(CSc1nc(=O)n(CCCN2CCOCC2)c2c1CCCC2)Nc1cccc(Cl)c1 | inactive | –
Cc1ccc2c(-c3ccc([N+](=O)[O-])cc3)cc(=O)[nH]c2c1 | inconclusive: 0.651 µM [falling, partial curve, poor fit] | –
Cc1ccc2cc3c(nc2c1)N(c1ccccc1)CC3 | inconclusive: 29.1 µM [activator, single point] | –
COCCn1cnc2c1c(=O)n(CC(=O)NCC(F)(F)F)c(=O)n2Cc1ccccc1 | inactive | –
Cc1ccccc1CN(c1ccc(C(=O)Nc2ccccc2C(=O)NCc2ccco2)cc1)S(C)(=O)=O | inactive | –
Cc1nnc(NC(=O)CSc2nccn2-c2cccc(C)c2C)s1 | inconclusive: 23.1 µM [falling, partial curve, poor fit] | –
CCc1ccc(NS(=O)(=O)c2ccc3[nH]cc(C(=O)NCc4ccc(C)cc4)c(=O)c3c2)cc1 | inconclusive: 29.1 µM [falling, single point] | –
COc1cc2c(cc1OC)C(c1cccs1)N(C(=O)c1cccnc1)CC2 (stereo unspecified) | inconclusive: 11.6 µM [activator, partial curve] | –
CCOc1ccc(CC2NCCc3cc(OCC)c(OCC)cc32)cc1OCC (stereo unspecified) | inconclusive: 16.4 µM [falling, single point] | –
COC(=O)CSc1nc2ccc(NC(C)=O)cc2s1 | inconclusive: 29.1 µM [activator, partial curve, poor fit] | –
CCOc1ccc(-n2c(=O)c3c4c(sc3n(Cc3cccc(C)c3)c2=O)CCCC4)cc1 | – | inactive: 0.596% [at 9.27 µM]
CC(=O)OCCNc1cc(SC(C)C)c2nonc2c1[N+](=O)[O-] | inactive | –
Cc1ccc(N2CCN(S(=O)(=O)c3cccs3)CC2C)cc1 (stereo unspecified) | inconclusive: 18.4 µM [falling, single point] | –
Cc1nn(-c2ccccc2)c(C)c1C(=O)OCC(=O)N(C)C1CCS(=O)(=O)C1 (stereo unspecified) | inconclusive: 29.1 µM [activator, single point] | –
CCn1nc(NS(=O)(=O)c2ccc([N+](=O)[O-])cc2)c2cc3cccc(C)c3nc21 | inconclusive: 29.1 µM [falling, single point] | –
CCOC(=O)C(N)CSC1CC(=O)N(c2ccc(C(=O)OC)cc2)C1=O (stereo unspecified) | inconclusive: 9.2 µM [activator, partial curve, poor fit] | –

A few values from the list:
Entry of CCOC(=O)C(N)CSC1CC(=O)N(c2ccc(C(=O)OC)cc2)C1=O (stereo unspecified) under Potency: inconclusive: 9.2 µM [activator, partial curve, poor fit]
Entry of CC(=O)OCCNc1cc(SC(C)C)c2nonc2c1[N+](=O)[O-] under Potency: inactive
Entry of Cc1ccc(N2CCN(S(=O)(=O)c3cccs3)CC2C)cc1 (stereo unspecified) under Potency: inconclusive: 18.4 µM [falling, single point]

Shown comma-delimited: two of the compounds above
Structure (SMILES),Potency,"activity change, negative = inhibition"
Cc1ccc(N2CCN(S(=O)(=O)c3cccs3)CC2C)cc1 (stereo unspecified),"inconclusive: 18.4 µM [falling, single point]",–
Cc1nn(-c2ccccc2)c(C)c1C(=O)OCC(=O)N(C)C1CCS(=O)(=O)C1 (stereo unspecified),"inconclusive: 29.1 µM [activator, single point]",–

(continued)

Structure (SMILES) | Potency | activity change, negative = inhibition
COc1cccc(NC(=O)c2ncc(Cl)c(Cl)c2Cl)c1 | inconclusive: 5.17 µM [activator, partial curve] | –
COCCNC(=O)/C(C#N)=C/c1c(N2CCN(c3cccc(Cl)c3)CC2)nc2c(C)cccn2c1=O | inconclusive: 29.1 µM [falling, single point] | –
CCC(C(=O)NC1CCCC1)N(C(=O)Cn1nnc(-c2ccc(OC)c(OC)c2)n1)C1CCCCC1 (stereo unspecified) | inconclusive: 25.9 µM [falling, partial curve, poor fit] | –
CCOC(=O)C1CCCN(C(=O)c2cc3c(-c4cccc(OC)c4)nn(C)c3s2)C1 (stereo unspecified) | inactive | –
CCc1ccc2c(c1)cc(CN(C(=S)Nc1ccccc1C)C1CC1)c1nnnn12 | inconclusive: 10.3 µM [falling, partial curve] | –
Cc1ccc(NS(=O)(=O)c2cccc(C(=O)NCC(c3cccs3)N3CCOCC3)c2)cc1 (stereo unspecified) | inconclusive: 16.4 µM [falling, partial curve, poor fit] | –
CCOCCCNC(=O)C1CCN(c2cc(C)nc3c(-c4ccc(Cl)cc4)c(C)nn23)CC1 | inactive | –
COc1ccccc1N1N=C(c2ccc([N+](=O)[O-])cc2)CC1c1ccccc1 (stereo unspecified) | inconclusive: 23.1 µM [falling, single point] | –
CC(=O)N1c2ccc(S(=O)(=O)N3CCC(C(=O)Nc4cccc(C(F)(F)F)c4)CC3)cc2CC1C (stereo unspecified) | active: 4.61 µM | –
COc1ccccc1N(CCOc1ccccc1)S(=O)(=O)c1ccccc1 | inactive | –
CCC1CN(C(=O)Nc2cccc(OC)c2)c2ccccc2O1 (stereo unspecified) | inconclusive: 29.1 µM [falling, single point] | –
N/C(=N\OC(=O)c1ccccc1Cl)c1cccnc1 | inconclusive: 9.2 µM [activator, partial curve] | –
COc1ccc(OCc2cc(C(=O)NC(C)Cc3cnccn3)no2)c(Cl)c1 (stereo unspecified) | inconclusive: 0.651 µM [activator, full curve] | –
COc1ccc(N(C)S(=O)(=O)c2cccc(C(=O)Nc3ccc(N4CCOCC4)cc3)c2)cc1 | inactive | –
COc1ccc2c(c1)c1c(c(=O)n(-c3ccc(F)c(Cl)c3)c(=O)n1CC(N)=O)n2C | inconclusive: 23.1 µM [activator, partial curve, poor fit] | –
CCOc1ccc(-c2c(C)nn3c(C)c(C(=O)NCCc4ccccc4)cnc23)cc1OCC | inactive | –
Cc1[nH]c2ccccc2c1N=Nc1ccccc1F | inconclusive: 29.1 µM [activator, single point] | –
CCOc1ccc(-n2c(-c3ccccc3)c[n+]3c2CCC3)cc1 | active: 2.31 µM | –
CCOC(=O)c1c(NC(C)=O)sc2c1CCN(Cc1ccccc1)C2 | inactive | –
Cn1nc(C(=O)N2CCN(c3ccc(Cl)cc3)CC2)c2c1-c1ccccc1S(=O)(=O)C2 | inconclusive: 23.1 µM [falling, single point] | –
COc1ccc(-c2cc(C(F)(F)F)nc(NCc3ccc(Cl)cc3)n2)cc1 | – | inactive: -7.34% [at 9.27 µM]
CCOC(=O)N1CCN(Cc2nc3cc(NC(=O)c4ccco4)ccc3n2C)CC1 | inactive | –

Structure (SMILES) | Potency | activity change, negative = inhibition
O=C(CSc1nnc(-c2cccc(F)c2)o1)N1CCOCC1 | inconclusive: 8.2 µM [activator, partial curve] | –
CCOc1ccc(C(=O)NNC(=O)CCNC(=O)c2ccco2)cc1OC | inactive | –
CN(C)c1cccc(C(=O)OCC(=O)c2ccc[nH]2)c1 | inconclusive: 4.61 µM [activator, full curve] | –
Cc1ccc(CCNc2nc3c(S(=O)(=O)c4ccccc4)nnn3c3ccsc23)cc1 | inactive | –
COc1cc(-c2noc(-c3ccc(N(C)C)c([N+](=O)[O-])c3)n2)cc(OC)c1OC | inconclusive: 23.1 µM [falling, single point] | –
COCC(C)n1c(C)cc(C(=O)CSc2ncccn2)c1C (stereo unspecified) | inconclusive: 18.4 µM [activator, partial curve] | –
CCCCC[C@H]1CN(CCCC)C(=O)[C@@H]1CC(=O)NCc1ccc(OC)cc1 | inactive | –
CS(=O)(=O)Nc1ccccc1C(=O)NCCSc1ccc(Cl)cc1 | inactive | –
Cc1ccccc1Cn1c2ccccc2c2cnn(CC(=O)NCCCc3ccccc3)c(=O)c21 | inactive | –
COc1ccc(-n2nc(C#N)c(Cl)cc2=O)cc1 | inconclusive: 18.4 µM [activator, single point] | –
CC(C)CN(C(=O)CSc1nc2ccccc2c(=O)n1C)C1CCS(=O)(=O)C1 (stereo unspecified) | inconclusive: 6.51 µM [falling, partial curve, poor fit] | –
CC(C)(C)c1cc(C(=O)Nc2cccc3ccccc23)ccn1 | inconclusive: 32.6 µM [falling, single point] | –
CCOC(=O)N1CCN(c2ccc(C(F)(F)F)cn2)CC1 | inconclusive: 23.1 µM [falling, single point] | –
CC1(c2ccc(OC(F)F)cc2)NC(=O)N(CC(=O)Nc2ccc(F)cc2)C1=O (stereo unspecified) | inconclusive: 18.4 µM [falling, partial curve, poor fit] | –
CC(C)CC(N)c1cn([C@@H](CCC(=O)O)C(=O)N2CCNCC2)nn1 (stereo partly specified) | inactive | –
Cc1cc(C)c2c(N)c(S(=O)(=O)Cc3ccccc3)sc2n1 | inconclusive: 1.84 µM [activator, partial curve, poor fit] | –
CC(C)(Sc1ccc(CCN(CCCCC2CCCCC2)C(=O)NC2CCCCC2)cc1)C(=O)O | inconclusive: 2.06 µM [falling, partial curve, poor fit] | –
C/C(=N/N=C(/C)c1cccs1)c1cccs1 | inconclusive: 11.6 µM [activator, partial curve, poor fit] | –
O=C(CC1CCCCC1)NCc1ccccc1Cl | inconclusive: 29.1 µM [activator, single point] | –
CCC(C)(C)C1CCc2c(sc(NC(=O)c3cccs3)c2C(N)=O)C1 (stereo unspecified) | inconclusive: 2.82 µM [falling, full curve, poor fit] | –
COc1ccc(CCNC(=O)c2sc3ccccc3c2Cl)cc1OC | inconclusive: 18.4 µM [falling, partial curve, poor fit] | –
Cc1ccc(NC(=O)Nc2nnc(Cc3ccc([N+](=O)[O-])cc3)s2)cc1C | inconclusive: 20.6 µM [falling, single point] | –
